{"source": "PubChem BioAssay AID602196 (INSERM, 2012)", "assay": "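Knock-downs that protect lung cancer cells from cisplatin or sensitise them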", "system": "human A549 lung cancer cells", "knock-down reagent": "siRNA pair against human genes", "timing": "48 h transfection before cisplatin; time from cisplatin to read-out not stated", "challenge": "cisplatin at a dose killing half of control-siRNA cells; exact dose and duration not given", "read-out": "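Cisplatin cell death as a shift from the 50% death seen with control siRNA; siRNAs toxic or growth-blocking alone scored 0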", "reading the numbers": "two-siRNA summed score (-2 to +2): higher = both siRNAs protect from cisplatin killing; -2 means both sensitise", "hit rule": "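siRNAs harmful alone (LDH or WST-1) get 0; others get +1 for less and -1 for more cisplatin killing; genes are active when the two siRNAs give the same sign, summing to ±2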", "calls": "active = both siRNAs shift cisplatin killing the same way; inactive = no consistent shift, or siRNA harmful alone", "note": "Here is an unselected part of about 23,000 reagents tested. Of all reagents, 455 (2%) were called active. 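Active includes both protection and sensitisation; some change values fall well beyond the stated -50 to +50 range.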 Reagents against one gene are numbered here. Not all columns of the deposit are shown. Not given: the amount of reagent."}
{"target": "ACOT7 (acyl-CoA thioesterase 7)", "reagent no.": 1, "two-siRNA summed score (-2 to +2)": 0, "activity call": "inactive"}
{"target": "KIAA1030", "reagent no.": 1, "two-siRNA summed score (-2 to +2)": 0, "activity call": "inactive"}
{"target": "LOC400988", "reagent no.": 1, "two-siRNA summed score (-2 to +2)": 0, "activity call": "inactive"}
{"target": "NVL (nuclear VCP like)", "reagent no.": 1, "two-siRNA summed score (-2 to +2)": 0, "activity call": "inactive"}
{"target": "BROX (BRO1 domain and CAAX motif containing)", "reagent no.": 1, "two-siRNA summed score (-2 to +2)": 0, "activity call": "inactive"}
{"target": "YBEY (ybeY metalloendoribonuclease)", "reagent no.": 1, "two-siRNA summed score (-2 to +2)": 0, "activity call": "inactive"}
{"target": "XAGE2 (X antigen family member 2)", "reagent no.": 1, "two-siRNA summed score (-2 to +2)": 0, "activity call": "inactive"}
{"target": "LOC442497", "reagent no.": 1, "two-siRNA summed score (-2 to +2)": 0, "activity call": "inactive"}
{"target": "LTA4H (leukotriene A4 hydrolase)", "reagent no.": 1, "two-siRNA summed score (-2 to +2)": 0, "activity call": "inactive"}
{"target": "CRHR2 (corticotropin releasing hormone receptor 2)", "reagent no.": 1, "two-siRNA summed score (-2 to +2)": -1, "activity call": "inactive"}
{"target": "PNLIPRP3 (pancreatic lipase related protein 3)", "reagent no.": 1, "two-siRNA summed score (-2 to +2)": 0, "activity call": "inactive"}
{"target": "ISG15 (ISG15 ubiquitin like modifier)", "reagent no.": 1, "two-siRNA summed score (-2 to +2)": -1, "activity call": "inactive"}
{"target": "LNPEP (leucyl and cystinyl aminopeptidase)", "reagent no.": 1, "two-siRNA summed score (-2 to +2)": 0, "activity call": "inactive"}
{"target": "LNPEP (leucyl and cystinyl aminopeptidase)", "reagent no.": 2, "two-siRNA summed score (-2 to +2)": 0, "activity call": "inactive"}
{"target": "LOC253289", "reagent no.": 1, "two-siRNA summed score (-2 to +2)": 0, "activity call": "inactive"}
{"target": "ABCA5 (ATP binding cassette subfamily A member 5)", "reagent no.": 1, "two-siRNA summed score (-2 to +2)": 0, "activity call": "inactive"}
{"target": "SLC6A5", "reagent no.": 1, "two-siRNA summed score (-2 to +2)": -1, "activity call": "inactive"}
{"target": "ZRANB1 (zinc finger RANBP2-type containing 1)", "reagent no.": 1, "two-siRNA summed score (-2 to +2)": -1, "activity call": "inactive"}
{"target": "DNAJC30 (DnaJ heat shock protein family (Hsp40) member C30)", "reagent no.": 1, "two-siRNA summed score (-2 to +2)": 0, "activity call": "inactive"}
{"target": "AKR1E2 (aldo-keto reductase family 1 member E2)", "reagent no.": 1, "two-siRNA summed score (-2 to +2)": 1, "activity call": "inactive"}
{"target": "ERICH2 (glutamate rich 2)", "reagent no.": 1, "two-siRNA summed score (-2 to +2)": 0, "activity call": "inactive"}
{"target": "LOC388574", "reagent no.": 1, "two-siRNA summed score (-2 to +2)": 1, "activity call": "inactive"}
{"target": "LINC00265 (long independently transcribed non-coding RNA 265)", "reagent no.": 1, "two-siRNA summed score (-2 to +2)": 0, "activity call": "inactive"}
{"target": "LOC442466", "reagent no.": 1, "two-siRNA summed score (-2 to +2)": 0, "activity call": "inactive"}
{"target": "GP9 (glycoprotein IX platelet)", "reagent no.": 1, "two-siRNA summed score (-2 to +2)": 0, "activity call": "inactive"}
{"target": "RAB11FIP3 (RAB11 family interacting protein 3)", "reagent no.": 1, "two-siRNA summed score (-2 to +2)": 0, "activity call": "inactive"}
{"target": "ENTPD3 (ectonucleoside triphosphate diphosphohydrolase 3)", "reagent no.": 1, "two-siRNA summed score (-2 to +2)": -1, "activity call": "inactive"}
{"target": "ALAS1 (5'-aminolevulinate synthase 1)", "reagent no.": 1, "two-siRNA summed score (-2 to +2)": 1, "activity call": "inactive"}
{"target": "BBS2 (Bardet-Biedl syndrome 2)", "reagent no.": 1, "two-siRNA summed score (-2 to +2)": 0, "activity call": "inactive"}
{"target": "CDC42EP3 (CDC42 effector protein 3)", "reagent no.": 1, "two-siRNA summed score (-2 to +2)": 0, "activity call": "inactive"}
{"target": "LOC440224", "reagent no.": 1, "two-siRNA summed score (-2 to +2)": 2, "activity call": "active"}

Part of the list above in another layout:
| target | reagent no. | two-siRNA summed score (-2 to +2) | activity call |
| --- | --- | --- | --- |
| CDC42EP3 (CDC42 effector protein 3) | 1 | 0 | inactive |
| LOC440224 | 1 | 2 | active |
